Results are given in words; binding and its absence hold for the method and conditions named. Some results given as binding are weak or reduced against the parent protein; the word gives no strength.
T1: purified recombinant rabbit PRLR (Protein Laboratories Rehovot, Israel) (rabbit) (UniProt P14787)
T1 sequence (looked up): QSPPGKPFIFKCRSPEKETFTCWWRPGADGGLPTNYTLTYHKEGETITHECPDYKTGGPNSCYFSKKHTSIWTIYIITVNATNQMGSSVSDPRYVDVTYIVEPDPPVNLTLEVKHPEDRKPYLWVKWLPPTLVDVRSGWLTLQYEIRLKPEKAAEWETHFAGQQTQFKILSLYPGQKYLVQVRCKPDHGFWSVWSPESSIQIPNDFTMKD


target: T1, purified recombinant rabbit PRLR (Protein Laboratories Rehovot, Israel) (rabbit); test: phage biopanning on immobilized recombinant rabbit PRLR

Binder | binding
SGATGRA (peptide, not shown: large carriers) [phage displaying motif SGATGRA] | binds
SGPTGRA (peptide, not shown: large carriers) [phage displaying motif SGPTGRA] | binds
QVHSSAY (peptide, not shown: large carriers) [phage displaying motif QVHSSAY] | binds
VFSDYKR (peptide, not shown: large carriers) [phage displaying motif VFSDYKR] | binds
LPTLSLN (peptide, not shown: large carriers) [phage displaying motif LPTLSLN] | binds
